Measurements: PMC7862700
The list shows a part of the results, in another mix than the full data. At the low end of the ranking the order means little.

By UniProt entry, the sequences of proteins in these tests, tags left out. Where a name states a change or a piece, a line headed by the entry shows the natural chain unless it says otherwise.
UniProt Q9Y603: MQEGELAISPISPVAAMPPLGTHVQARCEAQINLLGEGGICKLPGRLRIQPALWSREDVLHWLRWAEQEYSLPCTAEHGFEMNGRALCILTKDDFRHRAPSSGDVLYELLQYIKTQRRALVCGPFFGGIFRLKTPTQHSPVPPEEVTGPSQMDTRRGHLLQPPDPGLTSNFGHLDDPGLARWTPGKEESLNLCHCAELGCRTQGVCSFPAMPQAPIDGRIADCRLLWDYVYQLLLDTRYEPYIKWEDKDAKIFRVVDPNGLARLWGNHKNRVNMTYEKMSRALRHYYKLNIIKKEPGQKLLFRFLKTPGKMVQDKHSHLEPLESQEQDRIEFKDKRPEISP

Molecular target: ETV7 (UniProt Q9Y603)
Experiment: DAPPL (digital affinity profiling via proximity ligation, sequencing)
Details: 10 mM Tris-HCl pH 7.5, 50 mM NaCl, 1 mM DTT, 4% glycerol, room temperature, 30 min; GST-TFs on glutathione beads, 16-mer random dsDNA library, 0.1% …; high values mean tight binding; double strand, one strand shown; scale: fold enrichment (6-mer frequency, TF over GST control)

How did the binding signal turn out when ACCCGC was run?
Its binding signal is 1.18.

CTTATG was tested. Which binding signal did it give?
Its binding signal is 1.47.

For ACTACT, which binding signal is on record?
Its binding signal is 1.35.

ATGGAC was tested. Which binding signal did it give?
The binding signal was 1.02.

TGGTGT was tested. Which binding signal did it give?
The binding signal was 1.08.

For TAACAC, which binding signal is on record?
The binding signal was 1.21.

With CTCACT as the sequence, how does the binding signal read?
The binding signal was 1.56.

TATGTA was tested. Which binding signal did it give?
Its binding signal is 1.35.

Which binding signal does the source give for AACCTC here?
The binding signal was 1.26.

With CCGTAA as the sequence, how does the binding signal read?
The binding signal was 0.979.

With GAAATG as the sequence, how does the binding signal read?
The binding signal was 1.6.

CGACTC was tested. Which binding signal did it give?
The binding signal was 1.29.

How did the binding signal turn out when TACGTT was run?
Its binding signal is 1.34.

ACCACC was tested. Which binding signal did it give?
The binding signal was 0.995.

Which binding signal does the source give for ACCTAC here?
The binding signal was 1.09.

With TCTTAC as the sequence, how does the binding signal read?
The binding signal was 1.31.

ATCTAA was tested. Which binding signal did it give?
The binding signal was 1.22.

With ATGGGT as the sequence, how does the binding signal read?
Its binding signal is 1.41.

GCCTTC was tested. Which binding signal did it give?
Its binding signal is 1.47.

With GGAACA as the sequence, how does the binding signal read?
Its binding signal is 1.03.

For CGCCCG, which binding signal is on record?
Its binding signal is 1.08.

Which binding signal does the source give for TGTCTC here?
The binding signal was 1.16.

For CCATGC, which binding signal is on record?
The binding signal was 1.1.

Which binding signal does the source give for GACCTC here?
The binding signal was 1.33.

How did the binding signal turn out when GAACTC was run?
The binding signal was 1.29.

ACCGAA was tested. Which binding signal did it give?
Its binding signal is 0.968.

Which binding signal does the source give for TAGTCT here?
The binding signal was 0.98.

How did the binding signal turn out when ATGCGG was run?
Its binding signal is 1.25.

How did the binding signal turn out when ACTCGC was run?
Its binding signal is 1.09.

For GCCTCC, which binding signal is on record?
Its binding signal is 1.29.

With TGGACC as the sequence, how does the binding signal read?
The binding signal was 1.03.

With CGAAAG as the sequence, how does the binding signal read?
Its binding signal is 1.19.

Which binding signal does the source give for CCTCTA here?
Its binding signal is 1.36.

How did the binding signal turn out when TTGCAC was run?
The binding signal was 1.26.

AGAATT was tested. Which binding signal did it give?
Its binding signal is 1.13.

With CCTTGG as the sequence, how does the binding signal read?
The binding signal was 1.22.

With CTTTTA as the sequence, how does the binding signal read?
Its binding signal is 1.42.

With CCCGGA as the sequence, how does the binding signal read?
Its binding signal is 2.48.

How did the binding signal turn out when ACTTTC was run?
The binding signal was 1.51.
